{"source": "PubChem BioAssay AID662", "about": "(National Center for Advancing Translational Sciences (NCATS), 2007)", "note": "Some of the results follow. Shown are side measurements of this screen, not its main read-out; they come without a call. The list favours compounds with an active or inconclusive main result. Words in brackets tell the shape of the fitted curve; partial curves, single points and poor fits give uncertain potencies.", "data": [{"assay": "Cell signaling CRE-BLA (Fsk stim)", "conditions": "CHO CRE-bla reporter (cAMP response element driving beta-lactamase), forskolin EC10, beta-lactamase ratio; measured here: 460 nm blue channel", "in_short": "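Modulation of forskolin signalling: compounds in titration series added with EC10 NKH 477 to CHO cells carrying a CRE-driven beta-lactamase reporter, 3 h, 37C. CCF4 FRET ratio (460/530 nm, ex 405 nm) gives %activity and AC50.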", "values": [{"compound": "CCCC(=O)Nc1cc(-c2cn3cccnc3n2)ccc1OC", "AC50": "0.251 µM [falling, partial curve]"}, {"compound": "CCOC(=O)C1=C(C)NC(=O)CC1c1cc2c(cc1Br)OCO2", "note": "(centres undefined)", "AC50": "10 µM [rising, single point]"}, {"compound": "COc1ccc(-c2ccc(-c3nnc(-c4cc(OC)ccc4OC)o3)cc2)cc1", "AC50": "0.501 µM [rising, single point]"}, {"compound": "O=C(O)C1Cc2c([nH]c3ccccc23)C(c2ccc3c(c2)OCO3)N1", "note": "(centres undefined)", "AC50": "0.00316 µM [falling, full curve, poor fit]"}, {"compound": "CC1=CC2(C#N)C3(N=C(N)C2(C#N)C(c2ccccc2)N1)OCCO3", "note": "(centres undefined)", "AC50": "10 µM [falling, partial curve]"}, {"compound": "COc1ccccc1C(=O)Nc1ccc(S(=O)(=O)N2CCOCC2)cc1", "AC50": "7.94 µM [rising, partial curve]"}, {"compound": "COc1ccc2c3c(c(=O)oc2c1OCC(=O)C(C)(C)C)CCCC3", "AC50": "12.6 µM [rising, partial curve]"}, {"compound": "O=C1c2ccccc2-c2ccc(C(=O)N3CCOCC3)cc21", "AC50": "10 µM [rising, partial curve]"}, {"compound": "Cc1ccc(N2C(=O)C(Cl)=C(Nc3c(C)n(C)n(-c4ccccc4)c3=O)C2=O)cc1", "AC50": "5.01 µM [falling, single point]"}, {"compound": "CCOC(=O)c1ncn2c1C(=O)OC2(C)C", "AC50": "20 µM [falling, partial curve]"}, {"compound": "CCOC(=O)c1[nH]c2ccc(OC)cc2c1NC(=O)CN1CCC2(CC1)OCCO2", "AC50": "10 µM [rising, partial curve]"}, {"compound": "Cc1noc(C)c1-c1nccc(NCc2ccccc2)n1", "AC50": "3.16 µM [rising, full curve]"}, {"compound": "Nc1nncn1C(=O)c1cccs1", "AC50": "7.94 µM [falling, partial curve, poor fit]"}, {"compound": "COc1ccc(C2C=C(c3ccc(Br)s3)Nc3ncnn32)cc1OC", "note": "(centres undefined)", "AC50": "10 µM [rising, partial curve]"}, {"compound": "Cc1ccc(C)c(N2CCN(C(=O)c3cc(S(=O)(=O)N4CCOCC4)ccc3F)CC2)c1", "AC50": "10 µM [rising, single point]"}, {"compound": "Cc1cc(C(=O)NCCC2=CCCCC2)c(C)o1", "AC50": "12.6 µM [falling, single point]"}, {"compound": "N#CCSCC(=O)Nc1ccc(F)cc1", "AC50": "0.00398 µM [falling, full curve, poor fit]"}, {"compound": "Cc1noc(C)c1CSc1nc2ccccc2nc1NS(=O)(=O)c1ccc(Cl)cc1", "AC50": "20 µM [rising, single point]"}, {"compound": "CCCCNc1nc(SC)nc2nc[nH]c12", "AC50": "3.16 µM [rising, single point]"}, {"compound": "CCOC(=O)Cc1csc(SCn2nnc3ccccc3c2=O)n1", "AC50": "0.0158 µM [falling, partial curve, poor fit]"}, {"compound": "O=C(c1cccs1)n1nc(-c2ccccc2)nc1NCc1ccco1", "AC50": "25.1 µM [rising, single point]"}, {"compound": "COc1ccc(NC(=O)N2CCCC3(CCN(C(=O)c4cc(C(F)(F)F)cc(C(F)(F)F)c4)CC3)C2)cc1", "AC50": "25.1 µM [rising, single point]"}, {"compound": "CCOC(=O)c1cnc(SCC(=O)Nc2ccc(NC(C)=O)c(OC)c2)nc1N", "AC50": "12.6 µM [rising, single point]"}, {"compound": "COCc1cc(C)[nH]c(=O)c1C#N", "AC50": "0.631 µM [falling, partial curve]"}, {"compound": "COC(=O)CSc1nc(C2CC2)nc2ccccc12", "AC50": "12.6 µM [rising, single point]"}, {"compound": "COc1ccc2cc(C(c3nnnn3Cc3ccc(F)cc3)N3CCCCCC3)c(=O)[nH]c2c1", "note": "(centres undefined)", "AC50": "12.6 µM [rising, single point]"}, {"compound": "CCCc1[nH]nc2c1C(C1CC=CCC1)C(C#N)=C(N)O2", "note": "(centres undefined)", "AC50": "20 µM [falling, single point]"}, {"compound": "CCOC(=O)CSc1nc2cccnc2n1-c1ccc(F)cc1", "AC50": "12.6 µM [rising, partial curve]"}, {"compound": "O=S(=O)(O)CCN1CCOCC1", "AC50": "0.158 µM [falling, partial curve, poor fit]"}, {"compound": "O=C(c1nn2c(C(F)(F)F)cc(-c3ccccc3)nc2c1Cl)N1CCOCC1", "AC50": "12.6 µM [rising, single point]"}, {"compound": "O=C(c1ccncc1)N1CCN(C(=O)c2cccs2)CC1", "AC50": "0.00398 µM [falling, full curve]"}, {"compound": "O=C(Nc1ccc(F)cc1)N(Cc1ccco1)Cc1cc2cc3c(cc2[nH]c1=O)OCO3", "AC50": "7.94 µM [rising, partial curve]"}, {"compound": "CC(C)C(=O)N1CCc2cc(-c3csc(N)n3)ccc21", "AC50": "7.94 µM [rising, partial curve]"}, {"compound": "O=C(O)c1cc2nc3c(c(C(F)(F)F)n2n1)CCc1ccccc1-3", "AC50": "1.26 µM [rising, partial curve]"}, {"compound": "N#Cc1cccc(NC(=O)N2CCCC3(CCN(C(=O)c4ccco4)CC3)C2)c1", "AC50": "12.6 µM [falling, single point]"}, {"compound": "COC(=O)c1ccc2c(c1)C(=O)N(C1CCCCC1)C2=O", "AC50": "0.00794 µM [falling, full curve, poor fit]"}, {"compound": "CN(C)C(=O)c1ccc(-c2ccc3ncnc(NCc4cccnc4)c3c2)cc1", "AC50": "10 µM [rising, partial curve]"}, {"compound": "COc1ccccc1NC(=O)CSCC(N)=O", "AC50": "25.1 µM [rising, single point]"}, {"compound": "COCc1cc(C)nc(N2CCc3ccccc32)c1C#N", "AC50": "7.94 µM [rising, partial curve]"}, {"compound": "c1cc2c(cc1Oc1nc(N3CCOCC3)nc(N3CCOCC3)n1)OCO2", "AC50": "12.6 µM [falling, partial curve]"}, {"compound": "CCNc1ncc2nc(-c3ccc(Cl)cc3)c(=O)n(Cc3ccc(F)cc3)c2n1", "AC50": "5.01 µM [rising, partial curve]"}, {"compound": "Cn1c(C(=O)N2CCN(c3ccccn3)CC2)cc2c(=O)n(C)c3ccccc3c21", "AC50": "12.6 µM [rising, partial curve]"}, {"compound": "Cc1c(/C=N/n2cnnc2)c2ccccc2n1CCOc1ccc(Cl)cc1", "AC50": "3.98 µM [rising, partial curve]"}, {"compound": "COc1ccc(CCNC(=O)c2cnn3cccnc23)cc1OC", "AC50": "12.6 µM [rising, single point]"}]}]}
